From paper PMC8605241, “Coevolution of the bacterial pheromone ComS and sensor ComR fine-tunes natural transformation in streptococci” (The Journal of Biological Chemistry, 2021) come the findings set out here.

These are yes or no findings as the source states them, for the method shown. A result given as binding can be weak or reduced; the word gives no strength.

For the experiment, the target named is ComRSth-StreptagII protein (Streptococcus thermophilus ComR) (Streptococcus thermophilus). The experiment can be described thus: fluorescence polarisation; competition: 250 nM ComR and 30 nM FITC N-labeled XIP-A5M with twofold serial dilutions of unlabeled XIP variant from 5 uM; IC50; both purified. For orientation: In fluorescence polarisation assays a small probe gives low polarisation when free and higher when bound to something large.

As to LPYFAGCL [XIPSth (Streptococcus thermophilus XIP, synthetic octapeptide)], the binding result is on record as “binds”.
